Literature values in US12251364B2, “Treating non-alcoholic steatohepatitis with cck inhibitors” (priority 2018, dated 2025).
At least one structure is not confirmed: it was looked up by name or label, or the drawing left a doubt.

Conditions: PIVENS trial; cited from earlier work

## CCc1ccc(CCOc2ccc(CC3SC(=O)NC3=O)cc2)nc1 (stereo not shown) [pioglitazone]
  reversal of fibrosis: neither compound statistically reversed fibrosis
